Laboratory results taken from article PMC5052685, “The RNA-binding protein vigilin regulates VLDL secretion through modulation of Apob mRNA translation”.
The exact form of at least one protein or probe is not confirmed. The comparison behind a weaker result is the experiment's own reference, which may not be listed here. At least one verdict rests on a figure or table, not on a statement of the authors. Where a protein sequence is shown, tags need not be part of it.

molecular target: T1, VIGILIN (Homo sapiens) (UniProt Q00341); test: EMSA; settings: text: decreased or no binding for mutated and scrambled sites; 10 nM 32P-RNA, 0-10 uM protein, 250 mM KCl, 5 mM MgCl2, 25 mM Tris-HCl pH 7.5, 10% glycerol, 1 mg/ml acetylated BSA, 1.5 uM yeast tRNA, 25 C, 5 min; 1.2% agarose gel; recombinant protein; residues 1-1268; protein details: His6 (expressed from pETM30-vigilin-His6); label: 5' 32P
T1 sequence (looked up): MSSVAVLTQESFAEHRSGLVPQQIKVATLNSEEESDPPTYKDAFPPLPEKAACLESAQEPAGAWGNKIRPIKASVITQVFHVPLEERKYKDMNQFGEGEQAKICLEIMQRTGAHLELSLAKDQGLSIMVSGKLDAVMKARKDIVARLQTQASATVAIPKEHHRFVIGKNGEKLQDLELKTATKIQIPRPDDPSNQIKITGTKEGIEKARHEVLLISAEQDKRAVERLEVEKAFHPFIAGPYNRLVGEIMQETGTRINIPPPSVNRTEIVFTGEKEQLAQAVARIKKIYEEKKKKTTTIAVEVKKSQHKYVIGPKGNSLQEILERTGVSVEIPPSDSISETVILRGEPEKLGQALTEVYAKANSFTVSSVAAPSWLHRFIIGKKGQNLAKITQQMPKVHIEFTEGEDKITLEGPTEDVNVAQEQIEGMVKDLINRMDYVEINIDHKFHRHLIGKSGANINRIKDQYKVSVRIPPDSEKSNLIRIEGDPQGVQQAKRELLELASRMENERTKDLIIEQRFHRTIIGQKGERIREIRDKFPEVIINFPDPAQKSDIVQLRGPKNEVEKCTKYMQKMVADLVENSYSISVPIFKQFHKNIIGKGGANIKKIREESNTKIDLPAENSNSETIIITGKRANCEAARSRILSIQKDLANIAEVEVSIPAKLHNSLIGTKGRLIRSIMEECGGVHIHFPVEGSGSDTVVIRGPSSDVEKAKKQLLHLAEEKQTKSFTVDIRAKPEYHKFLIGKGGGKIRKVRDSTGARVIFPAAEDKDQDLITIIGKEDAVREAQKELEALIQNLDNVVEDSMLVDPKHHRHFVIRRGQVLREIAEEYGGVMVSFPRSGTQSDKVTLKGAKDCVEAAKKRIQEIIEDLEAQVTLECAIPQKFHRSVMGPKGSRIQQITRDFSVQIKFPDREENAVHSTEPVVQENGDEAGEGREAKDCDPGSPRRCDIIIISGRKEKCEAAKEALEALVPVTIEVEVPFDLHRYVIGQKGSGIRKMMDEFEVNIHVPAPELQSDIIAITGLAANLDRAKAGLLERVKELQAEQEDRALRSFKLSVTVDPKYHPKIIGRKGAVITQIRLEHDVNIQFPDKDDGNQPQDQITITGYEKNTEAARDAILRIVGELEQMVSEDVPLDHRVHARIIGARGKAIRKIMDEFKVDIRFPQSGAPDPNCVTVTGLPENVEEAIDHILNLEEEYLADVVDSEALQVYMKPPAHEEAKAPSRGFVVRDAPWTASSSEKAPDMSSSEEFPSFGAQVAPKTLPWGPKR

Binding result, binds more weakly:
CGCAACUUUUACAUUCUAUCAUAGCC [fetuin-A binding site scrambled]
CUAACUAAAUAAUAAUAUUAUUAAGG [fetuin-A binding site RRE mutant]
GAUUUAAAUCAACCUAAUUACAGGGC [Apob binding site RRE mutant]
CCGGCAAUCAUGCCUUACGAUUAUCC [Apob binding site scrambled]
